Publication doi:10.1101/2025.02.11.637656
These are yes or no findings as the source states them, for the method shown. Binding seen in cells or lysates may run through a third protein. Binding can be weak; no strength is given.

What was measured:
Test in all cases: pull-down
[1] = molecular target: GST-tagged Xvelo F1 (1-160 aa) (Xenopus)
[2] = molecular target: GST-tagged Xvelo F3 (386-610 aa) (Xenopus)
[3] = molecular target: GST-tagged Xvelo F4 (586-779 aa) (Xenopus)

Measured: binding

B1: Spindle assembly defective protein 6 (Sas6) (protein, UniProt Q6UVJ0 1-657)
chain: MSQVLFHQLVPLQVKCKDCEERRVSIRMSIELQSVSNPVHRKDLVIRLTDDTDPFFLYNLVISEEDFQSLKFQQGLLVDFLAFPQKFIDLLQQCTQEHAKEIPRFLLQLVSPAAILDNSPAFLNVVETNPFKHLTHLSLKLLPGNDVEIKKFLAGCLKCSKEEKLSLMQSLDDATKQLDFTRKTLAEKKQELDKLRNEWASHTAALTNKHSQELTNEKEKALQAQVQYQQQHEQQKKDLEILHQQNIHQLQNRLSELEAANKDLTERKYKGDSTIRELKAKLSGVEEELQRTKQEVLSLRRENSTLDVECHEKEKHVNQLQTKVAVLEQEIKDKDQLVLRTKEAFDTIQEQKVVLEENGEKNQVQLGKLEATIKSLSAELLKANEIIKKLQGDLKTLMGKLKLKNTVTIQQEKLLAEKEEKLQKEQKELQDVGQSLRIKEQEVCKLQEQLEATVKKLEESKQLLKNNEKLITWLNKELNENQLVRKQDVLGPSTTPPAHSSSNTIRSGISPNLNVVDGRLTYPTCGIGYPVSSAFAFQNTFPHSISAKNTSHPGSGTKVQFNLQFTKPNASLGDVQSGATISMPCSTDKENGENVGLESKYLKKREDSIPLRGLSQNLFSNSDHQRDGTLGALHTSSKPTALPSASSAYFPGQLPNS
binds: [1] | [2] | [3]
